Measurements published in paper PMC5360445, “SMOC can act as both an antagonist and an expander of BMP signaling” (eLife, 2017).

What was measured:
[1] = molecular target: XSMOC-1EC (EC domain only of XSMOC-1) (Xenopus); assay: pull-down; heparin Sepharose (0.3 μl) saturated with XSMOC-1 or XSMOC-1EC (6 μg), incubated with BMP2 (4 μg) in PBS (physiological ionic strength); unbound and eluted fractions on SDS-PAGE, Coomassie staining; both purified
[2] = molecular target: recombinant mature XSMOC-1 (Xenopus SMOC-1) (Xenopus); assay: as above

B1: human BMP2 (mature BMP2, A284-R396) (ligand, UniProt P12643 284-396)
chain: AKHKQRKRLKSSCKRHPLYVDFSDVGWNDWIVAPPGYHAFYCHGECPFPLADHLNSTNHAIVQTLVNSVNSKIPKACCVPTELSAISMLYLDENEKVVLKNYQDMVVEGCGCR
- binding [1]: no binding (tested: BMP2 (4 μg))
- binding [2]: no binding (tested: BMP2 (4 μg))

These are yes or no findings as the source states them, for the method shown.
